Results are given in words; binding and its absence hold for the method and conditions named. In cells and extracts the contact can be indirect. Some entries that bind do so weakly or less than the wild type.
Biological target: c-Cbl (UniProt P22681)
Assay: co-purification with c-Cbl from JMC-D3 lysate (Ni2+-chelation column, then agarose-immobilized anti-c-Cbl); bands identified by LC-MS/MS

- binding: binds
B1: TULA from JMC-D3 cells (protein)
chain: MAAGETQLYAKVSNKLKSRSSPSLLEPLLAMGFPVHTALKALAATGRKTAEEALAWLHDHCNDPSLDDPIPQEYALFLCPTGPLLEKLQEFWRESKRQCAKNRAHEVFPHVTLCDFFTCEDQKVECLYEALKRAGDRLLGSFPTAVPLALHSSISYLGFFVSGSPADVIREFAMTFATEASLLADCSVKPCTKQLHLTLAHKFYPHHQRTLEQLARAIPLGHSCQWTAALYSRDMRFVHYQTLRALFQYKPQNVDELTLSPGDYIFVDPTQQDEASEGWVIGISQRTGCRGFLPENYTDRASESDTWVKHRMYTFSLATDLNSRKDGEASSRCSGEFLPQTARSLSSLQALQATVARKSVLVVRHGERVDQIFGKAWLQQCSTPDGKYYRPDLNFPCSLPRRSRGIKDFENDPPLSSCGIFQSRIAGDALLDSGIRISSVFASPALRCVQTAKLILEELKLEKKIKIRVEPGIFEWTKWEAGKTTPTLMSLEELKEANFNIDTDYRPAFPLSALMPAESYQEYMDRCTASMVQIVNTCPQDTGVILIVSHGSTLDSCTRPLLGLPPRECGDFAQLVRKIPSLGMCFCEENKEEGKWELVNPPVKTLTHGANAAFNWRNWISGN
